# Experimental data: PubChem BioAssay AID2685 (National Center for Advancing Translational Sciences (NCATS), 2010)
# This is one part of the list. Shown are side measurements of this screen, not its main read-out; they come without a call. Most of these compounds were active or inconclusive in the main read-out, so they are no random draw. Potencies come from curve fits of mixed quality, noted in brackets.
# Assay: qHTS Assay for Lipid Storage Modulators in Drosophila S3 Cells;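 as to cell number change: cells counted by Cell Tracker Red CMTPX staining in the red channel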
# Conditions: BODIPY lipid droplet fluorescence, 18-24 h
# Summary of the method: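 Laser-scanning cytometry quantifies lipid droplet accumulation (500–530 nm total intensity; droplet/cell object ratio) in oleic acid-fed (400 uM added) Drosophila S3 cells treated with a concentration series. 20 uM Triacsin C defined 100% inhibition.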
structure (smiles),measurement,setting,value
Cc1ccccc1N/N=C/c1sc(=O)n(Cc2cccc(C(=O)O)c2)c1Cl,cell number change,"measured here: cell count max response, cells fed with added oleic acid",10%
same,AC50,"measured here: lipid fluorescence (Fed channel) AC50, cells fed with added oleic acid","6.51 µM [rising, single point]"
